Laboratory results: PubChem BioAssay AID1259314 (Drosophila RNAi Screening Center, 2017)

- Assay: 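Transmembrane protein genes affecting ATP after manganese overload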 (primary screen)
- System: Drosophila S2R+ cells
- Knock-down reagent: long dsRNA against Drosophila genes
- Duration: 5 days (4 days knock-down, then 1 day metal exposure)
- Conditions: manganese chloride added to 15 mM for 24 hours
- Measurement: 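Cellular ATP measured by luciferase light, scaled to the plate mean, averaged across replicates and z-scored over plates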
- Reading the numbers: mean ATP z-score: higher = more ATP than the plate average, more viable cells under manganese
- Hit rule: 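a mean ATP z-score past 1.5 in either direction is called active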
- Meaning of the calls: active = strong ATP change, up or down; inactive = no strong ATP change
The whole screen tested about 3,100 reagents; shown is an unselected part. Over the whole deposit, 289 (9.3%) were called active. 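Active includes both higher and lower ATP than plate average; check the z-score sign for direction.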 A number with no mark means an inactive call. The numbers tell different reagents against one gene apart. A plus sign joins genes that one reagent is predicted to hit. The record does not give: the amount of reagent.

gene,reagent,mean ATP z-score
Indy (GeneID 40049),1,-0.634
CG10804 (GeneID 31317),1,1.1
CG10804 (GeneID 31317),2,0.148
anne (GeneID 317815),1,-1.03
anne (GeneID 317815),2,-1
GABPI (GeneID 33516),1,0.454
GABPI (GeneID 33516),2,-0.648
CG33337 (GeneID 2768678),1,-0.783
CG33337 (GeneID 2768678),2,0.979
GABA-B-R2 (GeneID 42561),1,0.439
GABA-B-R2 (GeneID 42561),2,-0.794
CG32204 (GeneID 317913),1,-0.626
CG32204 (GeneID 317913),2,-1.33
Ptpmeg2 (GeneID 31907),1,-0.338
Ptpmeg2 (GeneID 31907),2,-0.864
Ptpmeg2 (GeneID 31907),3,-0.18
CG5592 (GeneID 38662),1,-0.516
CG5592 (GeneID 38662),2,-0.0496
Spg7 (GeneID 31253),1,-1.01
Spg7 (GeneID 31253),2,-0.212
CG32054 (GeneID 326185),1,-1.1
CG32054 (GeneID 326185),2,7.64 (active)
l(1)1Bb + ebo,1,0.988
l(1)1Bb + ebo,2,0.0871
CG11737 (GeneID 41009),1,0.711
Tsp26A (GeneID 33838),1,2.28 (active)
Rh7 (GeneID 39389),1,-1.81 (active)
Rh7 (GeneID 39389),2,-2.38 (active)
CG7627 (GeneID 34148),1,1.72 (active)
nan (GeneID 39571),1,-1.41
nan (GeneID 39571),2,-0.595
plh (GeneID 40615),1,0.766
lili (GeneID 42956),1,-0.449
lili (GeneID 42956),2,0.0757
mthl4 (GeneID 36960),1,1.88 (active)
Oatp26F (GeneID 33927),1,0.0609
Oatp26F (GeneID 33927),2,0.179
Oatp26F (GeneID 33927),3,-0.309
CG5250 (GeneID 42308),1,-0.222
CG5250 (GeneID 42308),2,-0.44
Lfg + asRNA:CR43468,1,-0.322
CG3156 (GeneID 30994),1,0.736
CG3156 (GeneID 30994),2,0.887
CG5892 (GeneID 42522),1,-0.628
CG5892 (GeneID 42522),2,0.364
fj (GeneID 37089),1,-0.0232
fj (GeneID 37089),2,-1.16
CG1632 (GeneID 31763),1,1.19
CG1632 (GeneID 31763),2,0.326
CG13426 (GeneID 37312),1,0.236
Or85c (GeneID 41008),1,-0.346
Or85c (GeneID 41008),2,-0.899
CG5885 (GeneID 34314),1,-1.17
CG5885 (GeneID 34314),2,2.18 (active)
CG3397 (GeneID 41454),1,3.15 (active)
CG3397 (GeneID 41454),2,-0.0429
GC2 (GeneID 41449),1,-0.302
GC2 (GeneID 41449),2,-0.749
PGAP1 (GeneID 31487),1,1.49
PGAP1 (GeneID 31487),2,0.371
PGRP-SC2 (GeneID 35862),1,0.122
PGRP-SC2 (GeneID 35862),2,2.29 (active)
alien + CG17906,1,0.64
alien + CG17906,2,0.187
CR33013 (GeneID 14462581),1,-0.552
CR33013 (GeneID 14462581),2,0.608
DopEcR (GeneID 38539),1,-0.662
Lgr1 (GeneID 42133),1,0.283
Lgr1 (GeneID 42133),2,-0.404

Active calls (from the list above):
gene,reagent,mean ATP z-score
CG32054 (GeneID 326185),2,7.64 (active)
Tsp26A (GeneID 33838),1,2.28 (active)
Rh7 (GeneID 39389),1,-1.81 (active)
Rh7 (GeneID 39389),2,-2.38 (active)
CG7627 (GeneID 34148),1,1.72 (active)
mthl4 (GeneID 36960),1,1.88 (active)
CG5885 (GeneID 34314),2,2.18 (active)
CG3397 (GeneID 41454),1,3.15 (active)
PGRP-SC2 (GeneID 35862),2,2.29 (active)

Additional reagents follow.
gene,reagent,mean ATP z-score
wus (GeneID 32683),1,-0.16
wus (GeneID 32683),2,-1.26
asRNA:CR30267 + CG42260,1,0.0746
p24-1 (GeneID 32140),1,0.98
p24-1 (GeneID 32140),2,-0.158
MRP (GeneID 34686),1,-1.01
MRP (GeneID 34686),2,-0.0509
CG43066 (GeneID 37129),1,-0.395
CG43066 (GeneID 37129),2,2.28 (active)
Ndc1 (GeneID 42825),1,-0.129
Ndc1 (GeneID 42825),2,0.113
S2P (GeneID 36262),1,-0.076
S2P (GeneID 36262),2,2.03 (active)
Sfxn2 (GeneID 40080),1,-0.0467
Sfxn2 (GeneID 40080),2,-0.152
jagn (GeneID 40714),1,0.942
jagn (GeneID 40714),2,0.246
MFS3 (GeneID 33292),1,-0.817
MFS3 (GeneID 33292),2,-0.313
Oatp58Dc (GeneID 37545),1,-1.01
Oatp58Dc (GeneID 37545),2,1.07
Tomosyn (GeneID 32217),1,0.2
Tomosyn (GeneID 32217),2,1.18
Ant2 (GeneID 32008),1,-1.75 (active)
nac (GeneID 40981),1,-0.825
CHOp24 (GeneID 31382),1,0.58
CHOp24 (GeneID 31382),2,1.64 (active)
Alg3 (GeneID 37754),1,0.989
CG8028 (GeneID 32923),1,-0.708
Zip42C.1 (GeneID 35579),1,-0.978
CG4928 (GeneID 32682),1,1.78 (active)
CG4928 (GeneID 32682),2,1.64 (active)
GluRIIE (GeneID 318623),1,0.141
GluRIIE (GeneID 318623),2,-0.887
CG7720 (GeneID 42257),1,-0.26
CG7720 (GeneID 42257),2,2.86 (active)
Or85e (GeneID 41018),1,-0.573
CG42340 (GeneID 7354472),1,0.199
CG42340 (GeneID 7354472),2,0.552
uzip (GeneID 38002),1,-0.702
uzip (GeneID 38002),2,-0.716
